Reference: publication doi:10.1101/2022.10.07.511298
These are yes or no findings as the source states them, for the method shown. Binding seen in cells or lysates may run through a third protein. Some binding calls cover weakened binding; strength is not graded here. Sequences can lack the tags named with a protein.

The chains behind the UniProt entries cited, without tags or fusion partners.
UniProt P93830: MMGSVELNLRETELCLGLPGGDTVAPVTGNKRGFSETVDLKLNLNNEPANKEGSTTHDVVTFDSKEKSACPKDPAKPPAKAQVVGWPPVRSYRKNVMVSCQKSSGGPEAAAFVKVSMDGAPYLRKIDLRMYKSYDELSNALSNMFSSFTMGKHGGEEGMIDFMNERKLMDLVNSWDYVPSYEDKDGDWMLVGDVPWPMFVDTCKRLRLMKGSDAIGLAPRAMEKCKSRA

Target: T1, TIR1-Myc (Arabidopsis thaliana) (UniProt Q570C0)
T1 sequence: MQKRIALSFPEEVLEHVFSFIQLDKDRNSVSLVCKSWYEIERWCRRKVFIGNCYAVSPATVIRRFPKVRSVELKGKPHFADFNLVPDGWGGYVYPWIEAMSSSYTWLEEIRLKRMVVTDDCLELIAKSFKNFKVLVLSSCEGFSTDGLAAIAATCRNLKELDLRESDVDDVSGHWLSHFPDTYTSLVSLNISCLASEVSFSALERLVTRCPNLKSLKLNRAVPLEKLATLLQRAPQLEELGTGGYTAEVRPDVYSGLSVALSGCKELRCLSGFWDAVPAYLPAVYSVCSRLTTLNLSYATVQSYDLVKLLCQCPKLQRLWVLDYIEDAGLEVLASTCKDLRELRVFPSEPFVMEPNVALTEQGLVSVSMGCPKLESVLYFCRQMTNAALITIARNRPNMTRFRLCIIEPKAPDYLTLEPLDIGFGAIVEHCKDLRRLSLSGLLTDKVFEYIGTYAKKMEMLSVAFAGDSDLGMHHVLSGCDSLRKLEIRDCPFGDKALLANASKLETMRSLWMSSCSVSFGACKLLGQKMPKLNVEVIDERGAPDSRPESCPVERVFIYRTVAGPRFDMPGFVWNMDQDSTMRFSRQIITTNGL
Experiment: co-IP

binding: binds
Substance: His-IAA17 recombinant protein (from UniProt P93830 1-229)
